Reference: US20230110875A1 (US Dept. of Health and Human Services, published 2023)
Results are given in words; binding and its absence hold for the method and conditions named. Some binding calls cover weakened binding; strength is not graded here. Where a sequence is shown, tags or fusion partners need not be part of it.

How the values were obtained:
[1] = target: T1, human CD276-AP fusion protein (human) (UniProt Q5ZPR3); test: ELISA, human CD276-AP coated, scFv-Fc in culture medium serially diluted
T1 sequence (looked up): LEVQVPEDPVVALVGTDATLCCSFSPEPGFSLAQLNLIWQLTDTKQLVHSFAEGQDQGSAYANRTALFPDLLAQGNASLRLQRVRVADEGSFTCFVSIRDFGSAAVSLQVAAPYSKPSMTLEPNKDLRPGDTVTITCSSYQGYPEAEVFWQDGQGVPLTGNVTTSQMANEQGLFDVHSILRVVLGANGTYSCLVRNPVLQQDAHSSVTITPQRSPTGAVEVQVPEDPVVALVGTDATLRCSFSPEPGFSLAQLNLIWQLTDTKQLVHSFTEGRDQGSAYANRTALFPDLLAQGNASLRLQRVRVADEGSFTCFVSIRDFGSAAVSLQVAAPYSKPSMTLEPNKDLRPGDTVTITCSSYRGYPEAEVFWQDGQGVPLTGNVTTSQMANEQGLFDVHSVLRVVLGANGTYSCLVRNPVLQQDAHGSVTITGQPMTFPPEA

[2] = target: T1, human CD276-AP fusion protein (human); test: ELISA, human CD276-AP fusion protein coated at 2 ug/ml, serially diluted scFv-Fc culture medium, HRP goat anti-human IgG, OD 450 nm

B1: Clone CD276.1 (m851) scFv-Fc fusion protein (Fc fusion)
scFv: QVQLQQSGAEVKKPGSSVKVSCKASGGTFSSYAISWVRQAPGQGLEWMGGIIPILGIANYAQKFQGRVTITADESTSTAYMELSSLRSEDTAVYYCARGGAGGSGSYYPLIWGQGTTVTVSSGGGGSGGGGSGGGGSEIVLTQSPATLSLSPGERATLSCGASQSVSSSYLAWYQQKPGQAPRLLIYDASSRATGIPARFSGSGSGTDFTLTISSLEPEDFAVYYCQQRSSWPPTWTFGQGTKLEIKR
notes: also called m851 (CD276.1); not shown: Fc-Avi tag from modified pSecTag vector
binding [1]: binds | binding [2]: binds
